Results from patent EP4484445A1.
These are yes or no findings as the source states them, for the method shown. A result given as binding can be weak or reduced; the word gives no strength.

Key:
[1] = biological target: HCMV Trimer complex (gH/gL/gO) (Human Cytomegalovirus, strain TR); assay: binding analysis of isolated mAbs (ELISA on coated protein)
[2] = biological target: HCMV Trimer complex (gH/gL/gO) (Human Cytomegalovirus, strain TR); assay: binding analysis (ELISA on coated protein)

B1: CS2it1p2_F7K (antibody, V domains shown)
VH: QVQLVQSGAEVKKPGASVRVSCKVSGYTLTDLSIHWVRQAPGKGLEWMGGFDPEHGEIMYAQKFQGRVTVTEDTSTHTTYMEVNSLRSEDTAVYYCATDSSIAMTGTYFSDLFALDVWGQGTTVIVSS
VL: DIQMTQSPSSLSASVGDRVTITCRASQTINTNLNWYQQKPGKAPRLLIFGTFSLKSGVPSRFSGGGSGTDFTLTISSLQPEDFAAYFCQQSHSPPHTFGQGTKLELK
binding [1]: binds
binding [2]: binds
